Experimental data: US12134640B2, “Polypeptides and medical uses thereof” (priority 2016, dated 2024)
Some compounds share one wording; it may come from a single statement.

Test: Circular dichroism in the presence of LPS
Settings: presence of LPS (0.2 mg/ml)

Sequence | secondary structure (CD spectra)
FFLKDFSTKRQIIDAINKVVYKGGR (FFL25 peptide) [peptide derived from VWA domain of collagen type VI α3-chain] | mixture of alpha helix and beta sheet
FYLKTYRSQAPVLDAIRRLRLRGGS (FYL25 peptide) [peptide derived from VWA domain of collagen type VI α3-chain] | mixture of alpha helix and beta sheet
GVRPDGFAHIRDFVSRIVRRLNIGPSKV (GVR28 peptide) [peptide derived from VWA domain of collagen type VI α3-chain] | mixture of alpha helix and beta sheet
VTTEIRFADSKRKSVLLDKIKNLQVALTSK (VTT30 peptide) [peptide derived from VWA domain of collagen type VI α3-chain] | mixture of alpha helix and beta sheet
